From US20190085081A1
These are yes or no findings as the source states them, for the method shown. Some results given as binding are weak or reduced against the parent protein; the word gives no strength.

Sequences of proteins named here, by UniProt entry; tags and fusion partners are left off. A change or cut given only in a name is not applied to a line headed by its entry. Residues count along the entry.
UniProt Q86T13: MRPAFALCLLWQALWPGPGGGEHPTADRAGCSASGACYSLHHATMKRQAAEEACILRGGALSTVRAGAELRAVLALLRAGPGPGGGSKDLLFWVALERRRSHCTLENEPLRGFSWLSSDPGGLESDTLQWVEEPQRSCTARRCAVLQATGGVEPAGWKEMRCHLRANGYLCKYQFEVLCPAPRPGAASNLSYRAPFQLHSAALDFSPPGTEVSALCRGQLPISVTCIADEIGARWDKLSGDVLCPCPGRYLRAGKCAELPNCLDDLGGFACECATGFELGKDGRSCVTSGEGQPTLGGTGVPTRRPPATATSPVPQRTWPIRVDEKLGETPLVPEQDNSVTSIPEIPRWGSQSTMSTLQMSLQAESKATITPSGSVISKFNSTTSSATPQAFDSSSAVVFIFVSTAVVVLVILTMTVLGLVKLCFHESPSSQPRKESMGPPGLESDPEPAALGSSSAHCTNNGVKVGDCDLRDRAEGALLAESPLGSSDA
UniProt Q8VCP9, residues 22-386: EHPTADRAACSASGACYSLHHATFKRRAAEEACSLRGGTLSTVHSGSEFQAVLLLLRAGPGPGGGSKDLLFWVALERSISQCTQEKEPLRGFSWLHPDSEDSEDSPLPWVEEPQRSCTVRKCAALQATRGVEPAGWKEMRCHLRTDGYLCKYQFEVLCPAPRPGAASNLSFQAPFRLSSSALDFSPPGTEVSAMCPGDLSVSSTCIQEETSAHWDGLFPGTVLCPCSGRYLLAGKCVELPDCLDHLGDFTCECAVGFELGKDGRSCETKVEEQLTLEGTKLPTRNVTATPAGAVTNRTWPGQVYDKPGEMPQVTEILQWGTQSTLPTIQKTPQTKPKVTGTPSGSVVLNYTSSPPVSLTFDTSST

Experiments:
Chimera 6 [1] = assay: flow cytometry
[2] = molecular target: human CLEC14A-ECD-Fc (human) (UniProt Q86T13); assay: ELISA, hybridoma supernatant on absorbed antigen
[3] = molecular target: murine CLEC14A-Fc (mouse) (UniProt Q8VCP9); assay: ELISA, hybridoma supernatant on absorbed antigen
[4] = molecular target: CLEC14A wild type with a C terminal GFP tag (human) (UniProt Q86T13); assay: flow cytometry on HEK293T cells, GFP-positive cells gated
Chimera 6 [5] = assay: as above
[6] = molecular target: human CLEC14A-ECD-Fc (human) (UniProt Q86T13); assay: pre-incubation of CLEC14A-ECD-Fc with antibody before MMRN2 pull-down
[7] = molecular target: CLEC14A wild type with a C terminal GFP tag (human) (UniProt Q86T13); assay: flow cytometry, HEK293T CLEC14A WT GFP, GFP-positive cells gated (R1); filled histogram is the control (files named IgG)
Chimera 6 [8] = assay: flow cytometry, HEK293T Chimera 6 GFP, GFP-positive cells gated (R1); filled histogram is the control (files named IgG)
[9] = molecular target: human CLEC14A, full length (human) (UniProt Q86T13); assay: flow cytometry on HUVECs
[10] = molecular target: human CLEC14A, full length (human) (UniProt Q86T13); assay: flow cytometry on HUVECs with control or clec14a siRNA
HA-CLEC14A (human) = HA-CLEC14A (human) (UniProt Q86T13); assay: flow cytometry on HEK293T cells overexpressing HA-CLEC14A
[11] = molecular target: human CLEC14A, full length (human) (UniProt Q86T13); assay: flow cytometry on HUVECs, FITC-labelled antibody after pre-treatment with BSA, C2 or C4
[12] = molecular target: CLEC14A with regions 97-108 of CD141 (human); assay: flow cytometry
[13] = molecular target: CLEC14A with regions 97-108 of CD141 (human); assay: flow cytometry, HEK293T 97-108 Chimera GFP, GFP-positive cells gated (R1); filled histogram is the control

Measured: binding

B1: CRT5 (antibody, IgG1, V domains shown)
VH: AEVQLQQSGAELMKPGASVKISCKATGYTFSSYWIEWVNQRPGHGLEWIGEILPGSGSTNYNEKFKGKATFTADTSSNTAYMQLSSLTSEDSAVYYCARGGDYDEEYYAMDYWGQGTSVTL
VL: QIVLTQSPAIMSASPGEKVTMTCSASSSVSYMYWYQQKPGSSPRLLIYDTSNLASGVPVRFSGSGSGTSYSLTISRMEAEDGATYYCQQWSSYPLTFGAGTKLELKR
binds: Chimera 6 [1] | [2] | [3] | [4] | Chimera 6 [5] | [6] | [7] | Chimera 6 [8]

B2: CRT4 (antibody, IgG1, V domains shown)
VH: QVQLQQSGAELMKPGASVKISCKATGYTFSSYWIEWVNRRPGHGLEWIGEILPGSGSTNYNEKFKGKATFTADTSSNTAYMQLSSLTSEDSAVYYCARGGDYDEEYYLMDYWGQGTTLTVSS
VL: QIVLTQSPAIMSASPGEKVTMTCSASSSVSYMYWYQQKPGSSPRLLIYDTSNLASGVPVRFSGSGSGTSYSLTISRMEAEDAATYYCQQWSSYPLTFGAGTKLEIKR
not listed: [12] | [13]
binds: all other assays above

B3: CRT3 (antibody, IgG1, V domains shown)
VH: EVQLQQSGTVLARPGASVKMSCKASGYTFTSYWMHWVKQRPGQGLEWIGAIYPGNSDTSYNQKFKGKAKLTAVTSTSTAYMELSSLTNEDSAVFYCTHYYGSDYAMDYWGQGTSVTV
VL: QIVLTQSPAIMSASLGERVTMTCTASSSVSSSYLHWYQQKPGSSPKLWIYSTSNLASGVPARFSGSGSGTSYSLTISSMEAEDAATYYCHQYHRSPRTFGGGTKLEIKR
binds: [12] | [13]
